# Measurements published in article PMC7168933, “Design, Synthesis and Biochemical Evaluation of Novel Ethanoanthracenes and Related Compounds to Target Burkitt’s Lymphoma” (Pharmaceuticals, 2020).
# Tests used:
# [1] = tested on: MUTU-1 Burkitt lymphoma cell line (EBV+); experiment: cells; details: Mutu-1, 24 h, read-out: IC50 MUTU-I 24 h
# [2] = tested on: DG-75 Burkitt lymphoma cell line (EBV−, chemoresistant); experiment: cells; details: Homo sapiens, DG-75, 48 h, read-out: IC50 DG-75 48 h
smiles,measurement,setting,value
"CNCCCC12CCC(c3ccccc31)c1ccccc12 [Maprotiline 8, maprotiline, reference compound]",IC50,[1],15.8 µM
same,IC50,[2],37.5 µM
